Assay results from US20250108038A1 (priority 2023, published 2025).
Certain results were filed several times, with different values. This is not the full list of results. An entry can have further records. Results that share an entry differ, and nothing given here explains why; they may come from other doses, times, organisms or constructs than stated.

Assay: Stability in human plasma
Details: 2.0 μM, 60 min

## Clc1ccc(C2(OCC3OCCO3)c3ccccc3C3=NCCN32)cc1 (stereo not shown) [Compound I-19]
  % Remaining: about 70% and 69.4%
